No constants are given. Whether binding was seen depends on the method and setting. Some binding calls cover weakened binding; strength is not graded here.
T1: soluble EpoR (EposR) (human) (UniProt P19235)
T1 sequence (looked up): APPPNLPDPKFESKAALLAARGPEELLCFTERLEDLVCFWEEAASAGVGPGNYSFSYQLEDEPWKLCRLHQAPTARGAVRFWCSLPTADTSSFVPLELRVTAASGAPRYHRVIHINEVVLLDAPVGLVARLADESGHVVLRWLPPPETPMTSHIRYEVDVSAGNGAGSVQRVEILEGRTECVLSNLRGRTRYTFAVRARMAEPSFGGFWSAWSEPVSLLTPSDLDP

T2: Recombinant-expressed EpoR extracellular domain (UniProt P19235)
T2 sequence (looked up): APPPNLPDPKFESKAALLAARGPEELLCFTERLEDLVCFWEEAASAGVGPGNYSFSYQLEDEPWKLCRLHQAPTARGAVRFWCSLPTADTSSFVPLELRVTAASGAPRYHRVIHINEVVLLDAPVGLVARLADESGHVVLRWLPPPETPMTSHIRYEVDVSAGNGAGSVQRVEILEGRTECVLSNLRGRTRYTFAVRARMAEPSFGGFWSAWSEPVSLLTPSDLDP


Assays:
[1] = biological target: T1, soluble EpoR (EposR) (human); assay: flow cytometry on yeast displaying the scFv, EposR titrated at 37° C., detected with MAB307 and anti-mouse PE
[2] = biological target: T2, Recombinant-expressed EpoR extracellular domain; assay: Western blot (FIG. 15 legend)
[3] = biological target: T2, Recombinant-expressed EpoR extracellular domain; assay: Western blot after native gel, Ab12.6 at 10 µg/ml

| binding [1] | binding [2] | binding [3] | Binder |
| --- | --- | --- | --- |
| binds |  |  | Ab12 scFv construct with Gly/Ser linker (WT) in both the tether and scFv linker positions, displayed on yeast (scFv) scFv: GGGGSGGGGSGGGGSQVQLQESGPGLVKPSETLSLTCTVSGASISSYYWSWIRQPPGKGLEWIGYIYYSGSTNYNPSLKSRVTISVDTSKNQFSLKLRSVTAADTAVYYCARERLGIGDYWGQGTLVTVSSGGGGSGGGGSGGGGSDIQLTQSPSSLSASVGDRVTITCRASQGIRNDLGWYQQKPGKAPKRLIYAASSLQSGVPSRFSGSGSGTEFTLTISSLQPEDFATYYCLQHNTYPPTFGQGTKVEIK |
| binds |  |  | Ab12 scFv construct with linker 41 in the tether position and the Gly/Ser linker (WT) in the scFv linker position, displayed on yeast (scFv) scFv: GENKVEYAPALMALSQVQLQESGPGLVKPSETLSLTCTVSGASISSYYWSWIRQPPGKGLEWIGYIYYSGSTNYNPSLKSRVTISVDTSKNQFSLKLRSVTAADTAVYYCARERLGIGDYWGQGTLVTVSSGGGGSGGGGSGGGGSDIQLTQSPSSLSASVGDRVTITCRASQGIRNDLGWYQQKPGKAPKRLIYAASSLQSGVPSRFSGSGSGTEFTLTISSLQPEDFATYYCLQHNTYPPTFGQGTKVEIK |
| binds |  |  | Ab12 scFv construct with linker 41 in the tether position and linker 34 in the scFv linker position, displayed on yeast (scFv) scFv: GENKVEYAPALMALSQVQLQESGPGLVKPSETLSLTCTVSGASISSYYWSWIRQPPGKGLEWIGYIYYSGSTNYNPSLKSRVTISVDTSKNQFSLKLRSVTAADTAVYYCARERLGIGDYWGQGTLVTVSSGHEAAAVMQVQYPASDIQLTQSPSSLSASVGDRVTITCRASQGIRNDLGWYQQKPGKAPKRLIYAASSLQSGVPSRFSGSGSGTEFTLTISSLQPEDFATYYCLQHNTYPPTFGQGTKVEIK |
|  | binds | binds | Ab12.6 (antibody, V domains shown, CDRH2 Y Y S is changed to G G E against Ab12; also called H2-1-3 R2 #6) VH: QVQLQESGPGLVKPSETLSLTCTVSGASISSYYWSWIRQPPGKGLEWIGYIGGEGSTNYNPSLKSRVTISVDTSKNQFSLKLRSVTAADTAVYYCARERLGIGDYWGQGTLVTVSS VL: DIQLTQSPSSLSASVGDRVTITCRASQGIRNDLGWYQQKPGKAPKRLIYAASSLQSGVPSRFSGSGSGTEFTLTISSLQPEDFATYYCLQHNTYPPTFGQGTKVEIK |
| binds |  |  | Ab12 41/40 scFv (linker 41 as tether, linker 40 as scFv linker), displayed on yeast (scFv) scFv: GENKVEYAPALMALSQVQLQESGPGLVKPSETLSLTCTVSGASISSYYWSWIRQPPGKGLEWIGYIYYSGSTNYNPSLKSRVTISVDTSKNQFSLKLRSVTAADTAVYYCARERLGIGDYWGQGTLVTVSSGPAKELTPLKEAKVSDIQLTQSPSSLSASVGDRVTITCRASQGIRNDLGWYQQKPGKAPKRLIYAASSLQSGVPSRFSGSGSGTEFTLTISSLQPEDFATYYCLQHNTYPPTFGQGTKVEIK |

Source: US20060018902A1 (published 2006)
